Results on 20 targets are retold here after the supplement of paper PMC11732987, “Enantioselective OTUD7B fragment discovery through chemoproteomics screening and high-throughput optimisation” (Communications Chemistry, 2025).

By UniProt entry, the sequences of proteins in these tests, tags left out. Where a name states a change or a piece, a line headed by the entry shows the natural chain unless it says otherwise. Residues count along the entry.
UniProt Q9Y4A5, whole entry, looked up: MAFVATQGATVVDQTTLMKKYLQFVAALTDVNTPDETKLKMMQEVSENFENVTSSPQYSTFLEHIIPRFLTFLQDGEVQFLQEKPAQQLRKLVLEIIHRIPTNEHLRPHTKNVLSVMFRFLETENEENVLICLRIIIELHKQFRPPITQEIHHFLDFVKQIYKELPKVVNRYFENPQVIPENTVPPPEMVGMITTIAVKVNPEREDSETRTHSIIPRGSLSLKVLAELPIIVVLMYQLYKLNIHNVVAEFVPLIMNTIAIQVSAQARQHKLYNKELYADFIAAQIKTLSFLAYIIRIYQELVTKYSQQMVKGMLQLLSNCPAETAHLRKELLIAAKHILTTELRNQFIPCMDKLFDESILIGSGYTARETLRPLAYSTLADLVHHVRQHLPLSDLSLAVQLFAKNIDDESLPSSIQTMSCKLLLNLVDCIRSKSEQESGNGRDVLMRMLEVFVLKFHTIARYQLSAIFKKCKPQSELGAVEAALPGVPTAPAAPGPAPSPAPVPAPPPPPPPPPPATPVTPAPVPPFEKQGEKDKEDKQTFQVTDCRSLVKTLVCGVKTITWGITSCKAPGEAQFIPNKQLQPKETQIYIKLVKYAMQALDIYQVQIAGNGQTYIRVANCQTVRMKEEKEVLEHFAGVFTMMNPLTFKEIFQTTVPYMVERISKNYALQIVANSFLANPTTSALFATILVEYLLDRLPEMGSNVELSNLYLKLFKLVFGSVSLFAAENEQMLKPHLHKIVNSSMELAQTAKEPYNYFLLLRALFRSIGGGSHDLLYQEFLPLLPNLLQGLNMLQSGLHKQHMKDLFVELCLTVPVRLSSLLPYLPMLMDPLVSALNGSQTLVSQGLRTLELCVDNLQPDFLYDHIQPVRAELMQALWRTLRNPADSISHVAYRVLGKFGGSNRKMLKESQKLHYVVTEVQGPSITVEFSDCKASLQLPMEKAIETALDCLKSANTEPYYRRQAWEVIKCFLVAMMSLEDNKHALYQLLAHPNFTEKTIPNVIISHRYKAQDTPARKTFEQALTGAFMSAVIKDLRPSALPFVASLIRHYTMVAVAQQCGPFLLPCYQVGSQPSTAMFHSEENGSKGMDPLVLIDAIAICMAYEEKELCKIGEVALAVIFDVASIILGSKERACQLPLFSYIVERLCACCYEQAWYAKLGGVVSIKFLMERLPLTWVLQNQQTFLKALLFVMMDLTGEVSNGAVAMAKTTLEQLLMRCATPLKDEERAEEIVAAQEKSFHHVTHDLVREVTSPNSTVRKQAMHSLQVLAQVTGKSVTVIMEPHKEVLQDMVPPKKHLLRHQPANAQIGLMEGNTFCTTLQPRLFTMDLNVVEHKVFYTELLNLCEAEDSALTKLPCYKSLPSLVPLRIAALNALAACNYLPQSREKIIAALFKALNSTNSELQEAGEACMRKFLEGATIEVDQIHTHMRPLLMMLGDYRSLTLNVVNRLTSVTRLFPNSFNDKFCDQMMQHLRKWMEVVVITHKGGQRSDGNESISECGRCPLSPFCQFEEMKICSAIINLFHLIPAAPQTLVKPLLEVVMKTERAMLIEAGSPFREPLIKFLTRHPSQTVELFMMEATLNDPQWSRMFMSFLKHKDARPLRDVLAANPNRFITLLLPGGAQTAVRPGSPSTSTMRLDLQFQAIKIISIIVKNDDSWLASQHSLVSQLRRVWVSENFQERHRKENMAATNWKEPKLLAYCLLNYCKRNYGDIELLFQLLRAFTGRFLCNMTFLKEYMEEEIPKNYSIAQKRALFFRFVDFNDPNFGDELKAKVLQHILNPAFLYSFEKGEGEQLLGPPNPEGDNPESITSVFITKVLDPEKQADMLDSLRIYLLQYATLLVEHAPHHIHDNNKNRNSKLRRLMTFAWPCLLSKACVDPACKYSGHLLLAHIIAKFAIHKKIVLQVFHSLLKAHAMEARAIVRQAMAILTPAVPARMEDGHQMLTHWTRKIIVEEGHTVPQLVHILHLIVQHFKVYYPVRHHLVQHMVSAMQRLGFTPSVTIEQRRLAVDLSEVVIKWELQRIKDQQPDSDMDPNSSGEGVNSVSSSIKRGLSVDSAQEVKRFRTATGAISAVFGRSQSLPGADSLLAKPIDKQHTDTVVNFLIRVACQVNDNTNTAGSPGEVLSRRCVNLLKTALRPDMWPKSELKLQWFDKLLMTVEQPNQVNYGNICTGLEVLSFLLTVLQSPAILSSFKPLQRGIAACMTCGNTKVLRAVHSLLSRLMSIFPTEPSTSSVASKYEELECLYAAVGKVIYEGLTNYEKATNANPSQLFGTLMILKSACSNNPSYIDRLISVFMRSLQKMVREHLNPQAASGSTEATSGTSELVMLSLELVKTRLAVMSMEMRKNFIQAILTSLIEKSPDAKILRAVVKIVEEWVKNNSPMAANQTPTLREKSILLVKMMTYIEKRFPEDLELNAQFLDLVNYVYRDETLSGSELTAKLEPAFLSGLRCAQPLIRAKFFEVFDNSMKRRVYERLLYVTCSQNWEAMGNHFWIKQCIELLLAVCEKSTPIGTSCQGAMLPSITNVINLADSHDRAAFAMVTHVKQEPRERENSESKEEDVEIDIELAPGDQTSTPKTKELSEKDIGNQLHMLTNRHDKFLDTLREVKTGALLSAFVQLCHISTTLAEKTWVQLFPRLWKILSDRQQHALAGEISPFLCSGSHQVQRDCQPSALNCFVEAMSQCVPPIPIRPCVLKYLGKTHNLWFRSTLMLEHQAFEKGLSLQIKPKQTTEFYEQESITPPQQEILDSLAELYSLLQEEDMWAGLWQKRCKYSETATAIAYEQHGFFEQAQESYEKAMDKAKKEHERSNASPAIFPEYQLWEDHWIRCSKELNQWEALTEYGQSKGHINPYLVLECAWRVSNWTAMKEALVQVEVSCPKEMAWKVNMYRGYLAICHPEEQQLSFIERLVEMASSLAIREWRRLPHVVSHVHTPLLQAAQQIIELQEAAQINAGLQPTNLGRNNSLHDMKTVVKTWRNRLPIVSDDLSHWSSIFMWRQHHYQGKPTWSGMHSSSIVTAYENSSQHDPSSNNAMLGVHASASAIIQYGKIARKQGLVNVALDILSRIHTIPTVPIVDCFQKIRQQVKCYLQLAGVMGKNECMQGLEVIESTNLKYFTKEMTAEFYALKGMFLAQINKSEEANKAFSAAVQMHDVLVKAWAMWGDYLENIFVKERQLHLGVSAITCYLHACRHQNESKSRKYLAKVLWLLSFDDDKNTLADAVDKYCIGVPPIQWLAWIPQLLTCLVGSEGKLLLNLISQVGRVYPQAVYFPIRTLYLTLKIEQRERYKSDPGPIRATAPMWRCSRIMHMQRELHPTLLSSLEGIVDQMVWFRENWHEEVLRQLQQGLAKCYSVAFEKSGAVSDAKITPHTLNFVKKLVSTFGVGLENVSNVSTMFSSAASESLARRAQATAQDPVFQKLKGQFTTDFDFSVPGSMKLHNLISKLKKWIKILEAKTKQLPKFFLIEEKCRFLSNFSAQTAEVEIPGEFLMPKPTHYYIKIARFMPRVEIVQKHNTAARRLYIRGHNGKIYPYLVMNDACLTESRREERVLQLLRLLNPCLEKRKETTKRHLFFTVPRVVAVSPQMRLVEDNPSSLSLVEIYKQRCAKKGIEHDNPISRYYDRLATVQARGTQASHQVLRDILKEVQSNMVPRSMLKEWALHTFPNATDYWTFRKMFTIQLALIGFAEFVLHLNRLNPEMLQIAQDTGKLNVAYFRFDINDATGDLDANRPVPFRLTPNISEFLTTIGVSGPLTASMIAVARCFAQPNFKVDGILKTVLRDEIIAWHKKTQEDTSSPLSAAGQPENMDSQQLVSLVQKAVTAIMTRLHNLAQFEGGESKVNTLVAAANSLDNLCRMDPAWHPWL
UniProt Q9NUP7: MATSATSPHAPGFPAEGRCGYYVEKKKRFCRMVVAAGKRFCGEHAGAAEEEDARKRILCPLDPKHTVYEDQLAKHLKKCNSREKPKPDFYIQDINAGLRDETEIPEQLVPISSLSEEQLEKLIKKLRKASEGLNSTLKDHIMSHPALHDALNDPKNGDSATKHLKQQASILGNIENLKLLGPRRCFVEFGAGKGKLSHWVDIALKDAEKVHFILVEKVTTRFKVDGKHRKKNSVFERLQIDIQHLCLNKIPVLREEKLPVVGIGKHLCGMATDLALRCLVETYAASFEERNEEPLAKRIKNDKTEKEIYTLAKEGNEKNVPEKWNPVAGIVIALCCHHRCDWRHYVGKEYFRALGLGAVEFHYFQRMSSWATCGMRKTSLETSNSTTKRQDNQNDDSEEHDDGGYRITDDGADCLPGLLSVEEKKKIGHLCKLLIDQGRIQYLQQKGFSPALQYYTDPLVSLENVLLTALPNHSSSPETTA
UniProt P51965: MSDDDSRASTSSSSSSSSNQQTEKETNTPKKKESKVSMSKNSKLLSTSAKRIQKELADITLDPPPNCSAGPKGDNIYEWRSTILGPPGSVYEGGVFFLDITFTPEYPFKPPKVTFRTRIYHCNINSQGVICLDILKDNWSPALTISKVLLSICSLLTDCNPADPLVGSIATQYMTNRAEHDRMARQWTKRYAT
UniProt P43897: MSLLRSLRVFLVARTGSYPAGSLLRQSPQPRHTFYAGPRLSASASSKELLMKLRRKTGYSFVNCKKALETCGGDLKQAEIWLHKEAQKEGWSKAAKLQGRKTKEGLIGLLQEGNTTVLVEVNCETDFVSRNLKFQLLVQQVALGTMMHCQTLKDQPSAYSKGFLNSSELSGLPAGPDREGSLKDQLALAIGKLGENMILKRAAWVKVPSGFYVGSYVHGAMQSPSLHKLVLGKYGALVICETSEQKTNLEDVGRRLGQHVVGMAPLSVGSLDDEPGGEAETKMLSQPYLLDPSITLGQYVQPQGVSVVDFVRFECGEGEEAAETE
UniProt Q9Y5Z9, 21-40: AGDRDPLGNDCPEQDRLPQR
UniProt Q5TAX3: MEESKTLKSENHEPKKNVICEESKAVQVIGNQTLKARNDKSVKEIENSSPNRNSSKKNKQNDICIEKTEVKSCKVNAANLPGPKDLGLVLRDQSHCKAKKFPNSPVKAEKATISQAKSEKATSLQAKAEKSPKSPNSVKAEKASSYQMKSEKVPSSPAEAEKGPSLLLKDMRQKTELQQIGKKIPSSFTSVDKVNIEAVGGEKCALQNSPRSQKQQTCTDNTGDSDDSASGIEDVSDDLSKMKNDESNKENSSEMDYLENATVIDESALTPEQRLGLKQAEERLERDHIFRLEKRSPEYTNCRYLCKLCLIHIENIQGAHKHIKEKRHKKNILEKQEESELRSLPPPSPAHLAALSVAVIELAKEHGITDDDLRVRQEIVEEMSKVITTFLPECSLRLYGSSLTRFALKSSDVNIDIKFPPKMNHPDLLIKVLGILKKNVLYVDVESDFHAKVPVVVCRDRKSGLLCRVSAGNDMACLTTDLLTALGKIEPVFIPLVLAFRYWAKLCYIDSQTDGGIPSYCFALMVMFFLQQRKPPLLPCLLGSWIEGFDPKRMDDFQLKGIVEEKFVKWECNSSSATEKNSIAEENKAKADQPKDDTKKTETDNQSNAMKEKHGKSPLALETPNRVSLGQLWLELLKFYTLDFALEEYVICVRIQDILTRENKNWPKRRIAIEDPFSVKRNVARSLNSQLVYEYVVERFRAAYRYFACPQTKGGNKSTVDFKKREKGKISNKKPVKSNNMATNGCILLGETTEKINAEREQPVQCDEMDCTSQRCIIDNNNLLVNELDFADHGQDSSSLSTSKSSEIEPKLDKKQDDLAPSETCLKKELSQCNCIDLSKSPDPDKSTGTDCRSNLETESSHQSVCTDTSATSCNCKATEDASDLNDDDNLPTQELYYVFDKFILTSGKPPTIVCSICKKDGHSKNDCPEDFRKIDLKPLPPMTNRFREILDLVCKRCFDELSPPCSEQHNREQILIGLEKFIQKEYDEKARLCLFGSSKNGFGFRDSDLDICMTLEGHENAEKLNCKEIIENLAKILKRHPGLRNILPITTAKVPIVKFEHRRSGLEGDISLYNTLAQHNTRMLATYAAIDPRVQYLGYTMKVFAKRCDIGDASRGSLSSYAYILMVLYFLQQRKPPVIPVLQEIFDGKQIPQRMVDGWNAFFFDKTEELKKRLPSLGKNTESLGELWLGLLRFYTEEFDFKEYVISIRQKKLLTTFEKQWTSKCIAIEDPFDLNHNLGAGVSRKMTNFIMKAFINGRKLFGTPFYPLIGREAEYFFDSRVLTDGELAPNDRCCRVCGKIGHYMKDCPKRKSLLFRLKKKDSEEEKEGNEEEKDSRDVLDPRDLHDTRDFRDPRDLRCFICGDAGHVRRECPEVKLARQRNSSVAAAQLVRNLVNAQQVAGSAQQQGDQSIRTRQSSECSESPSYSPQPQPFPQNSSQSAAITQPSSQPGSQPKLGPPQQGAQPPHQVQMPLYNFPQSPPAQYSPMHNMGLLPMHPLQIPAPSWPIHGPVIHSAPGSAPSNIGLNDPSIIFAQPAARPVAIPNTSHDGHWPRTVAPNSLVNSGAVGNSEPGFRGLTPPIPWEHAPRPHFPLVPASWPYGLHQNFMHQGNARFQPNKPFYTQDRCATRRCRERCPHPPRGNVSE
UniProt Q9UNY4, 195-214: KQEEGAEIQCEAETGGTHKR
UniProt Q9UNY4, 549-575: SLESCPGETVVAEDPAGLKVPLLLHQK

This is one part of the list. The data scatter; read single values as rough.

Compound in one test: ClCC(=O)N[C@@H]1CCCc2ccccc12
As to the kind of experiment: log2 mean competition ratio of IA-DTB cysteine labelling (DMSO/compound) (log2 ratio); higher = stronger cysteine engagement by compound. As to conditions: 50 µM; treatment time: 4 h; cell line lysate: HEK293T. The method, then: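 IA-DTB competitive cysteine chemoproteomics in HEK293T RIPA lysate. Lysates were treated with compound 29 or 30 at 50 or 200 µM for 4 h, then IA-DTB (500 µM, 1 h), trypsin-digested, NeutrAvidin-enriched and analysed by diaPASEF. Competition ratio = intensity DMSO / intensity compound (n=4 treated, n=64 DMSO); binding: mean log2 CR ≥ 1 and p ≤ 0.05 plus QC filters. Target is the cysteine site.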
As to TRRAP C3347 (UniProt Q9Y4A5), the “log2 mean competition ratio” value stood at 0.347.
On to TRMT13 C185 (UniProt Q9NUP7), for which the “log2 mean competition ratio” value was 0.144.
As to UBE2E1 C67 (UniProt P51965), the “log2 mean competition ratio” value is -0.129.
On the same count and under the same terms, the value for TTC30A C174 was 0.0759; that for TSFM C71 (UniProt P43897) was -0.383.
Same read-out and setting: as for UBR4 C2222 (UniProt Q5T4S7), the figure is 0.027.
Same read-out and setting: the value for UBE4A C79 (UniProt Q14139) was 0.167.
Take TSC1 C259 (UniProt Q92574): the “log2 mean competition ratio” value is -0.264.
On the same count and under the same terms, as for UBIAD1 C31 (UniProt Q9Y5Z9), the figure is -0.259.
TXNRD2 C500 (UniProt Q9NNW7): the “log2 mean competition ratio” value was -0.197.
For the target TUT4 C825 (UniProt Q5TAX3), the “log2 mean competition ratio” value is -0.28.
The same measure, in the same setting: the value for TYW1B;TYW1 C169;(C215) was 0.0388; that for TRMT2A C365 (UniProt Q8IZ69) was 0.117; that for TTC9 C67 was -0.0629.
The same measure, in the same setting: the value for TUFM C127 (UniProt P49411) was 0.409.
For UBA3 C139 (UniProt Q8TBC4), the “log2 mean competition ratio” value was -0.233.
On the same count and under the same terms, the value for TTF2 C204 (UniProt Q9UNY4) was 0.221.
Still for that read-out and setting: the value for TTF2 C553 (UniProt Q9UNY4) was 0.127; that for TRUB2 C252 (UniProt O95900) was -0.0443.
The same measure, in the same setting: the value for TSEN54 C277 (UniProt Q7Z6J9) was 0.146.

Still in this test, the particulars now being: 200 µM; treatment time: 4 h; cell line lysate: HEK293T.
Regarding TRRAP C3347 (UniProt Q9Y4A5), the “log2 mean competition ratio” value was 0.0404.
For the target TRMT13 C185 (UniProt Q9NUP7), the “log2 mean competition ratio” value was 0.0915.
Same read-out and setting: the value for UBE2E1 C67 (UniProt P51965) was -0.259; that for TTC30A C174 was -0.116.
On the same count and under the same terms, the value for TSFM C71 (UniProt P43897) was -0.181; that for UBR4 C2222 (UniProt Q5T4S7) was 0.0077.
For the target UBE4A C79 (UniProt Q14139), the “log2 mean competition ratio” value was 0.0322.
TSC1 C259 (UniProt Q92574): the “log2 mean competition ratio” value stood at 0.129.
The same measure, in the same setting: the value for UBIAD1 C31 (UniProt Q9Y5Z9) was 0.183; that for TXNRD2 C500 (UniProt Q9NNW7) was 0.286; that for TUT4 C825 (UniProt Q5TAX3) was 0.101.
In the case of TYW1B;TYW1 C169;(C215), the “log2 mean competition ratio” value worked out at 0.264.
The same measure, in the same setting: the value for TRMT2A C365 (UniProt Q8IZ69) was 0.204.
The same measure, in the same setting: the value for TTC9 C67 was -0.136; that for TUFM C127 (UniProt P49411) was -0.177; that for UBA3 C139 (UniProt Q8TBC4) was -0.308.
In the case of TTF2 C204 (UniProt Q9UNY4), the “log2 mean competition ratio” value is -0.00893.
TTF2 C553 (UniProt Q9UNY4): the “log2 mean competition ratio” value was 0.0416.
Still for that read-out and setting: as for TRUB2 C252 (UniProt O95900), the figure is 0.0779.
Same read-out and setting: as for TSEN54 C277 (UniProt Q7Z6J9), the figure is 0.113.
